Measured values from patent US20090220527A1 (MEDLMMUNE, published 2009).
Results are given in words; binding and its absence hold for the method and conditions named. Some binding calls cover weakened binding; strength is not graded here.

By UniProt entry, the sequences of proteins in these tests, tags left out. Residues count along the entry.
UniProt P29317, residues 24-534: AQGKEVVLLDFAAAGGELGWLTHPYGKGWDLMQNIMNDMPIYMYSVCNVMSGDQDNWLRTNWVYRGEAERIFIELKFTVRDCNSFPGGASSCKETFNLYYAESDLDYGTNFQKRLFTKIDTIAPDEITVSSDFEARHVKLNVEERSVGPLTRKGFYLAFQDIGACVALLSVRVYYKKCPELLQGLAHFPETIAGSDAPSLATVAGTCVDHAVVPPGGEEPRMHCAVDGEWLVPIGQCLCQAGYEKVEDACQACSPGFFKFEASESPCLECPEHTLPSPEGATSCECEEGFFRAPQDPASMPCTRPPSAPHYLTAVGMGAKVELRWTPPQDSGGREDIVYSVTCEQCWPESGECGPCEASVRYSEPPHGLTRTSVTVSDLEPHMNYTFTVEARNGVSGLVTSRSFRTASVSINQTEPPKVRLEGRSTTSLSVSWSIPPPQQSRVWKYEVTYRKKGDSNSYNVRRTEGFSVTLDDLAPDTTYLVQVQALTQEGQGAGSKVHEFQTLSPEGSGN

Target: human EphA2 (form used in the affinity measurements not stated) (human) (UniProt P29317)
Test: SPR (BIAcore 3000), purified scFv

| Binder | binding |
| --- | --- |
| 2A4 scFv (affinity optimized combinatorial variant of humanized 4H5) (scFv) scFv: QVQLLESGGGLVQPGGSLRLSCAASGFTFSSYTMSWVRQAPGQALEWMGTISSRGTYTYYPDSVKGRFTISRDNAKNSLYLQMNSLRAEDTAVYYCAREAIFTHWGRGTLVTVSSGGGGSGGGGSGGGGSDIQLTQSPSSLSASVGDRVTITCKASQDINNYHSWYQQKPGQAPRLLIYRANRLVDGVPDRFSGSGYGTDFTLTINNIESEDAAYYFCLKYNVFPYTFGQGTKVEIK | binds |
| 2E7 scFv (affinity optimized combinatorial variant of humanized 4H5) (scFv) scFv: QVQLLESGGGLVQPGGSLRLSCAASGFTFSSYTMSWVRQAPGQALEWMGTISSRGTYTYYPDSVKGRFTISRDNAKNSLYLQMNSLRAEDTAVYYCAREAIFTHWGRGTLVTVSSGGGGSGGGGSGGGGSDIQLTQSPSSLSASVGDRVTITCKASQDINNYGSWYQQKPGQAPRLLIYRANRLVDGVPDRFSGSGYGTDFTLTINNIESEDAAYYFCLKYNRFPYTFGQGTKVEIK | binds |
